Measured values as given in PubChem BioAssay AID1508600 (Functional Genomics Laboratory (NCATS/FGL), 2020).
The whole screen tested about 53,000 sequences, of which about 3,700 (7%) were called active.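 Rule for the calls: active = gene knockdowns whose robust z-score for IL-1 alpha signal is at least 2 or at most -2, so actives lie on both sides; inactive = the rest.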 Some of the results follow.

experiment: Components of the Cytosolic LPS Sensing Pathway: Gene Identification via Genome-wide siRNA Screen; conditions: RAW264.7 macrophages, IL-1a HTRF, actives lie on both sides, screened at 100 nM (by protocol), cells primed 5 h with Pam3CSK4 first;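 note: robust z of the log signal after scaling to non-targeting control siRNA wells of the plate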
In short: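 RAW264.7 mouse macrophages reverse-transfected with single siRNAs (100 nM final) for 48h, primed with Pam3CSK4 for 5 hours, then transfected with LipidA for 24 hour. Supernatant IL-1a read by HTRF; values normalized to negative-control median, log-transformed robust z-scores.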

Sequence	z-score
CCGAUUCCUUAGUCAUCGUTT against Pdgfra	inactive: -0.787
GGUUCAUAGUCUGUUAUGATT against Clpb	inactive: -1.34
GGACAUUUUCCGUAGAUUUTT against Rbm25	inactive: -0.724
GCGCAACAUCUAUAAACGGTT against Mtmr4	inactive: 0.55
CCUCCUUAGACUCAAAUCCTT against Nfe2l2	inactive: 1.38
CGUCUGUCCUAAUGAACCUTT against Pramel31	inactive: 0.15
GACGCAAGCAGCAUUUUAUTT against R3hdm4	inactive: -0.207
CCUGCACAGGAUAAUUAUGTT against Zfp426	inactive: 0.848
GGGUAAUUGUCUCUAGUAATT against Adam24	inactive: -0.121
GGAGAAACGGUACAUCUGUTT against Gstm5	inactive: -0.956
GGAAGAAGAACUGCACCUATT against Tcea2	inactive: -1.08
GGAAAUAUUGUCAUCAUGGTT against Olfr1302	inactive: -0.483
GCGGCAGUGAUGAUAAGAATT against Acbd5	inactive: -0.825
GGAUUUAUACUGAAUUGUCTT against Rpl39	inactive: 0.273
GGAGCGAGAAGGUAAAGUCTT against Pibf1	inactive: 1.05
GCUGUUACAGACCUGUUUCTT against Hspbp1	inactive: 0.482
CGCGGUGGAGCUUCGAGAATT against Nrtn	inactive: 0.374
GUCACGAGAUUCAAGAUGUTT against Pate4	inactive: 0.0789
CCUCGAAUUACGUAUGUUUTT against Fyn	inactive: 1.12
GCUAACAUUGUAAAUGCACTT against Dmrta1	inactive: 0.467
GCACGACACUCUGUGCAUCTT against Kyat3	inactive: 0.6
GGCCUAGCAAGGGAUUUUATT against Cep85	active: -2.02

Sequence	z-score
GGAGUUUAUGAGGAACUCGTT against Zwint	inactive: -0.0598
CGAGGUCGAUGGAUAAAGGTT against Scnm1	inactive: -0.103
GGAGUUUGUUAACAGAGUATT against Pcyt1b	inactive: -0.634
GCUGGCAGUUUGUAAGUAGTT against Faxc	inactive: -0.653
GGACAGUUAGAUGGAUUGUTT against Msc	inactive: -1.66
GGCUACAGAAGGUGUUCAGTT against Klra22	inactive: 0.71
CCAUUAACGUAAAUUCUGUTT against Ankrd13c	inactive: -0.971
GGCCAAAAAAACAUACAAGTT against Zbtb21	active: 4.91
GGAGCUUCAGGUGAAGCGATT against Fam136a	inactive: -1
GGAGAAAGUGUAGUGUUUATT against Siglecf	inactive: 0.76
CCAGUUGAAAUAUUGAGCATT against Mbnl3	inactive: -0.16
GGAAAAUCCCUCUUUGGCUTT against Sez6l2	inactive: -0.566
GGUUUGUAUUGUAACUUUGTT against Abi1	inactive: 0.414
GGCAUGGUGGGACAUUUCUTT against Pla1a	inactive: -0.248
GCAUUGAAGUCACCUCCACTT against Clcn2	inactive: 0.161
GGUACGAAGUCAAAGUGAATT against Dnmt3l	inactive: 0.0494
GCCAUUUCCUACAAUGCUUTT against Olfr1443	inactive: -1.73
CCUAGACGUGACUUAAUAUTT against Rabggtb	active: 2.09
GCAUGAUGCAUACAAAGGCTT against Etfa	inactive: -0.829
GGAGUUUUCAGCAACAAAUTT against Fgf5	inactive: -0.829
GGAAAAGCAACACAUCUAUTT against Chst7	inactive: 0.268
GGCUGAAACUAAGAACUCATT against Nelfe	inactive: -0.86

Sequence	z-score
CCGAAAGGCUGGUACAUUCTT against Kin	inactive: -0.494
CGGUACAAGCUAGACCUCATT against Mettl26	inactive: 0.493
GGACUUAGUACCUGAUAACTT against Rtraf	inactive: 0.838
CCAGAGUACAGUGUAGUCATT against Hspb6	inactive: 0.508
GGUGACAUUGUAAUAACCATT against Sult1b1	inactive: -1.1
GUCCAGAGUGACCACAUUUTT against Pemt	inactive: -0.471
CCCUAAACCUCUUUCAACATT against Nbeal1	inactive: 0.534
GGUCGACUGAAGGCCUUUUTT against Olfr1339	inactive: -1.21
CGGGCUGAAUGUGUUUGUGTT against Slc10a4	active: 2.62
GGAGUUUCUCUUAGGGAAATT against Ubald2	inactive: 1.58
GGACAUUGUGCUAUUUUAATT against Mepe	inactive: -0.645
GCAGACGACAAGUUCUACATT against Tbcb	inactive: -0.666
GGUCAAAGAGUUCUGUGAATT against Ppp2r1a	inactive: -0.79
AAGGAAGUCUGUCCAAGGUTT against Olfr192	inactive: -0.284
GCUUUUCAGGGCAGGUUACTT against Tmem150c	inactive: 1.4
GGUUUGCUAGCUGACAACCTT against Dpep1	inactive: -1.4
GGCCAACCUGUUCAUCAGCTT against Bdkrb1	inactive: -0.0817
GGACAAGAAAAAGUCCAGATT against Dhx38	inactive: -1.17
GGAAGCUGUGCUCUCCAUGTT against Gm4814	inactive: 0.644
GUGAGAAGUUGUGUAGAGCTT against Fmc1	inactive: 1.84
GGAGAAAGAGGAGAAGAAATT against 4931414P19Rik	inactive: -1.37
CGGACACUCGGAUCAUAUUTT against Mblac1	inactive: 0.611

Retrieved one by one from the list above (3):
Sequence	z-score
GUCCAGAGUGACCACAUUUTT against Pemt	inactive: -0.471
GGACAAGAAAAAGUCCAGATT against Dhx38	inactive: -1.17
GGUUUGCUAGCUGACAACCTT against Dpep1	inactive: -1.4

Some of the entries so far, as labelled records:
GGGUAAUUGUCUCUAGUAATT against Adam24
  z-score: inactive: -0.121
GGAGUUUUCAGCAACAAAUTT against Fgf5
  z-score: inactive: -0.829
GGCCAACCUGUUCAUCAGCTT against Bdkrb1
  z-score: inactive: -0.0817

Remaining list, next part.

Sequence	z-score
GGAAGAAGAAAAGGAUUACTT against Erlec1	inactive: -0.0575
GGACUGUUGAAUAAAACCUTT against Rnps1	active: -2.29
GGUCCGAGAACAUCAUCGATT against Gnl3	inactive: 0.867
GCCUUAGGACGAGAGAAUATT against Spertl	inactive: -1.9
CCAUUCUGUGCCUUAGUUUTT against Loxhd1	inactive: -0.276
CCUGUAGGGCUUUUUGAAATT against Mex3a	inactive: 0.843
GGACUUUGAGAAAGCAUUCTT against Pck1	active: -2.03
GGCACCUACAUCCUUAUUGTT against Ptprn	inactive: -0.16
GCAACCGAAGUAACAUAUATT against Rbmy	inactive: -0.805
GAUGGUACUCUUCAUAGUATT against Olfr1362	inactive: -1.1
GCCGUUUACGUUUAUUGUUTT against Cux2	inactive: -0.0356
CCCAGGACGACGACUUUUUTT against Pnmal1	inactive: -0.0664
GGGAAGAAAAAAAAAGGGUTT against Fkrp	inactive: -1.18
GGAUGAAAAAUCAGUACUUTT against Aadac	active: -2.02
GGGUAAUUAAAAAGGAAACTT against Nt5dc1	inactive: 1.3
CCUGGAAAAUAAAAGGUGGTT against Olfr1141	inactive: 0.147
CCAGUUCGAUGUGGUAAUATT against St3gal5	inactive: 1.11
GGACACUGUACAGAAGCUGTT against Asb18	active: -2.31
GCAAAAAAUGCUCAGUUAGTT against Utp14b	inactive: -0.406
GGAAAGAAAAAUCAGAGAATT against Adprhl1	inactive: -0.866
GGAGGGACACAGAGAUUACTT against Auh	active: 5.05
GGUUCAUCAACACCAGCAUTT against Fgfrl1	inactive: 0.926

Sequence	z-score
GCCUGUGCCAGAUUUUCUCTT against Rgl2	inactive: 0.458
CCGGAUCAUCCUGGAGAUUTT against Krt13	inactive: -0.846
GGAUAGGUUUCUGUAUUUATT against Znrf1	inactive: 0.621
GGCUGAGCCAUUUGACAGATT against Afap1l2	inactive: 0.878
GCUCAACAGACUCUGUACUTT against Cadm2	inactive: 0.95
GGGUGAUUUCUGGACUUGGTT against Arap1	inactive: -1.84
CCGUAUUCCAUACAAGGACTT against Ilk	inactive: -1.22
GGAUGAAACACAACUGCACTT against Ctsz	inactive: 0.256
GGCGUGAAGAAGUUUGAUGTT against Pklr	inactive: -0.431
GAAGAGCGGGUGUUGCUAATT against Ypel2	inactive: 0.891
GCAGUAACUCCGGUAGUAGTT against Daxx	active: 5.84
GGAGGAAAUACAUGAUAAATT against Strap	inactive: -0.159
GGAUAACAAAAACAGCAUUTT against Lmbrd2	inactive: 0.205
GCAGAGGAUUGAUGCACACTT against Nlrp4g	inactive: 1.14
GGAGAUUGAGCUGAAUAUUTT against Prss44	inactive: -0.734
CUUACAUUCCCAGUGUGCCTT against Nat14	inactive: -0.198
GAUUGGAUUUAAAGCCUGCTT against Olfr667	inactive: 0.389
GGCAAUGACCUUGUAAAGATT against Tomm34	inactive: -1.56
GCAGGCUUAAUGAAUUCUATT against Haus6	inactive: -0.133
